In article PMC5794859:
No constants are given. Whether binding was seen depends on the method and setting.

Target: T1, AtE (cytochrome P450 monooxygenase) (Aspergillus terreus) (UniProt Q0CJ57)
T1 sequence: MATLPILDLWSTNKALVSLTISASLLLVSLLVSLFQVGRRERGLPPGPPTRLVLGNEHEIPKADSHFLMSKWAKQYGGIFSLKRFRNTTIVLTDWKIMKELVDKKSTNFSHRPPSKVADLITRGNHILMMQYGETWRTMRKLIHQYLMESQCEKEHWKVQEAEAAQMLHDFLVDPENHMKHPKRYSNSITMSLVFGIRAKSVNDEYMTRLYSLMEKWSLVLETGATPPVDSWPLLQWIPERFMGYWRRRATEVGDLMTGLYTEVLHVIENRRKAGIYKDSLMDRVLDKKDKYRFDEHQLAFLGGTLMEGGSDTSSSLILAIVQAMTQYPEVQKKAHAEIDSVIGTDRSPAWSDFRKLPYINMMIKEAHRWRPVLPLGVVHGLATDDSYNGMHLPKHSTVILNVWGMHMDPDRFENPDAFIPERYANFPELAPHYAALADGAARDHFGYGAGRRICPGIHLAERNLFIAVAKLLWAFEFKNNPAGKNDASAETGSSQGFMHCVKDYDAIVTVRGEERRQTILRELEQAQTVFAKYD
Assay: two-hybrid; yeast two-hybrid (Y2H) assay on AtG and AtE; details only in Supplementary Fig. S7

B1: AtG (putative cytochrome P450 monooxygenase) (enzyme, UniProt Q0CJ54 1-157)
chain: MISSVPYRERQSIGGIRSCPHSPASSRFPRVNDSAPTVFQGWDVPIGTPISMNIWNTHYNKDFFPGPTEFWPERWMGEGTRELEKYLVPFGSGSRMCTGQNLSIAEQVLTIATLFRNYELELYQTTKKNVVMASYCMISLPGSESPGIQVKVRKTVQ
B1 was tested, and the binding was “no binding”.
